Laboratory results taken from publication PMC12702014.
These are yes or no findings as the source states them, for the method shown. Binding seen in cells or lysates may run through a third protein. A result given as binding can be weak or reduced; the word gives no strength. Sequences can lack the tags named with a protein.

Target: Flag-Tmbim1 (transmembrane BAX inhibitor motif containing 1)
Experiment: co-IP; BRL cells infected with Flag-Tmbim1 and HA-Rab9a lentiviruses for 48 h; Pierce Classic IP Kit; Flag precipitation, immunoblot with anti-Flag and anti-HA; IgG as negative control

B1: HA-Rab9a (protein, UniProt Q99P75 1-201)
chain: MAGKSSLFKIILLGDGGVGKSSLMNRYVTNKFDSQLFHTIGVEFLNKDLEVDGHFVTMQIWDTAGQERFRSLRTPFYRGSDCCLLTFSVDDSQSFQNLSNWKKEFIYYADVKEPESFPFVILGNKTDIKERQVSTEEAQAWCKDNGDYPYFETSAKDSTNVAAAFEEAVRRILATEDRSDHLIQTDTVNLHRKPKPNSSCC
binding: binds
